One substance from article PMC4319893 (PLoS ONE, 2015) can be followed below.

Where only a bound is given, the exact number is not on record here.

The data set in a line: general procedure: Fmoc solid-phase peptide synthesis; preloaded Fmoc-Val-Wang-resin or Val-2CT-resin (0.6–0.7 mmol/g, 100–200 mesh); HBTU/DIPEA. The note with it: conjugation step, TFA salts.

Cy5-Cys-N-dimer: the conjugation yield was found to be 75%. Besides, where the note is “ELSD, UV”, the “final HPLC purity” value was >95%.
